Reference: PMC9590589 (RSC Advances, 2022)

System: MDA-MB231 (breast) cells
Assay: MTT cytotoxicity assay, MDA-MB231
Format: cell-based
Details: Homo sapiens, MDA-MB-231, 24 h, read-out: Cytotoxic activity, IC50, MDA-MB231
Summary of the method: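 Cells grown in DMEM/F12 with 10% FBS, penicillin (100 U mL−1) and streptomycin (100 μg mL−1) at 37 °C, 5% CO2, and passaged twice weekly by trypsinization. Seeded at 5 × 10^3 cells per well for 24 h, then exposed to a range of test compound concentrations for 24 h. MTT (5 mg mL−1 stock) added for 2 h, supernatant removed, formazan dissolved in DMSO, absorbance read at 540 nm, and IC50 calculated. Controls: doxorubicin (positive) and 0.75% DMSO (negative).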

`COc1cccc2c1C(=O)c1c(O)c3c(c(O)c1C2=O)C[C@@](O)(C(=O)CO)C[C@@H]3O[C@H]1C[C@H](N)[C@H](O)[C@H](C)O1` [Doxorubicin, reference compound] gave an IC50 of 3.1 µM.
